Results from patent US20190351015A1.
No constants are given. Whether binding was seen depends on the method and setting. Binding seen in cells or lysates may run through a third protein. Some entries that bind do so weakly or less than the wild type.

Sequences of proteins named here, by UniProt entry; tags and fusion partners are left off. A change or cut given only in a name is not applied to a line headed by its entry.
UniProt P25963: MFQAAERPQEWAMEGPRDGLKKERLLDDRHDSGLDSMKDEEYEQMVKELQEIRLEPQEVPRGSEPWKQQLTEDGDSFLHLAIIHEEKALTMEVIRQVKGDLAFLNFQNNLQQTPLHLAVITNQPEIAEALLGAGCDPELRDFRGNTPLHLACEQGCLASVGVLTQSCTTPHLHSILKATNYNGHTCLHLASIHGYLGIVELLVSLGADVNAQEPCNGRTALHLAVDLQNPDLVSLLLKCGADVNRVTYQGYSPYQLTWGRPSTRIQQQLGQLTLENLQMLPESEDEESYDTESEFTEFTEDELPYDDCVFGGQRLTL
UniProt P78367: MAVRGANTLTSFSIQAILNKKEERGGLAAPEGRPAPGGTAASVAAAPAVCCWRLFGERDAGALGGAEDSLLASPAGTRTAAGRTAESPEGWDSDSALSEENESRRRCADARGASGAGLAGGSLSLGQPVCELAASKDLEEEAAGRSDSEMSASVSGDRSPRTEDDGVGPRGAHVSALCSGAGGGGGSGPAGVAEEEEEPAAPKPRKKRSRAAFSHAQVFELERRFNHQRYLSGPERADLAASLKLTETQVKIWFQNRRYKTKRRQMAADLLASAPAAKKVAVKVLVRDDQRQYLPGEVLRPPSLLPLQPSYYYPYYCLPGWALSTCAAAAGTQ

What follows are substances tested against IκBα (Homo sapiens (Human)) (UniProt P25963) (assay: co-immunoprecipitation with anti-Myc antibody (Myc-tagged IκBα) from transfected 293T cells with MG132, western blot).

| binding | Substance |
| --- | --- |
| binds | Nkx3.2 (112-320) (from UniProt P78367 112-320) |
| binds | Nkx3.2 (1-333) (from UniProt P78367 1-333) |
| binds | Nkx3.2 (130-320) (from UniProt P78367 130-320) |

The remaining lines, values behind:

| Substance | binding |
| --- | --- |
| Nkx3.2 (123-320) (from UniProt P78367 123-320) | binds |
| Nkx3.2 (150-320) (from UniProt P78367 150-320) | binds |
| Nkx3.2 (153-318) (from UniProt P78367 153-318) | binds |
